According to patent publication US10968181B2, “NRF2 activator” (BIOGEN MA INC., priority 2016, dated 2021):
Some entries share one result that the patent states for a list of compounds.

Tested on: NRF2
Test: PathHunter Nuclear Translocation assay (DiscoverX), agonist format
Type: cell-based
Settings: 6 hours at room temperature, duplicate, 10 concentrations, 30 μM top concentration, normalized to control ligand CDDO methyl ester and vehicle

Question: For `CC1(C)C(=O)C(C#N)=CC2(c3ccccc3)C(=O)N(c3cccnc3)CC=C12` (single isomer, unassigned) [Compound 126-Ent1], which EC50 is on record?
Answer: < 100 nM

Question: With `CC1(C)C(=O)C(C#N)=CC2(c3ccccc3)C(=O)N(c3cccnc3)CC=C12` (single isomer, unassigned) [Compound 126-Ent2] as the compound, how does the EC50 read?
Answer: < 1000 nM

Question: `CC1(C)C(=O)C(C#N)=CC2(c3ccccc3)C(=O)N(c3ccccn3)CC=C12` (single isomer, unassigned) [Compound 127-Ent1] was tested. Which EC50 did it give?
Answer: < 1000 nM

Question: `CC1(C)C(=O)C(C#N)=CC2(c3ccccc3)C(=O)N(c3ccccn3)CC=C12` (single isomer, unassigned) [Compound 127-Ent2] was tested. Which EC50 did it give?
Answer: < 100 nM

Question: For `CC1(C)C(=O)C(C#N)=CC2(c3ccccc3)C(=O)N(c3ccncn3)CC=C12` (single isomer, unassigned) [Compound 128-Ent1], which EC50 is on record?
Answer: < 1000 nM

Question: For `CC1(C)C(=O)C(C#N)=CC2(c3ccccc3)C(=O)N(c3ccncn3)CC=C12` (single isomer, unassigned) [Compound 128-Ent2], which EC50 is on record?
Answer: < 100 nM

Question: For `CC1(C)C(=O)C(C#N)=CC2(c3ccccc3)C(=O)N(c3cnccn3)CC=C12` (single isomer, unassigned) [Compound 129-Ent1], which EC50 is on record?
Answer: < 1000 nM

Question: `CC1(C)C(=O)C(C#N)=CC2(c3ccccc3)C(=O)N(c3cnccn3)CC=C12` (single isomer, unassigned) [Compound 129-Ent2] was tested. Which EC50 did it give?
Answer: < 100 nM

Question: With `CC1(C)C(=O)C(C#N)=CC2(c3ccccc3)C(=O)N(c3cccnn3)CC=C12` (single isomer, unassigned) [Compound 130-Ent2] as the compound, how does the EC50 read?
Answer: < 100 nM

Question: How did the EC50 turn out when `CC1(C)C(=O)C(C#N)=CC2(c3ccccc3)C(=O)N(c3cncnc3)CC=C12` (single isomer, unassigned) [Compound 131-Ent1] was run?
Answer: < 1000 nM

Question: `Cc1nccc(N2CC=C3C(C)(C)C(=O)C(C#N)=CC3(c3ccccc3)C2=O)n1` (single isomer, unassigned) [Compound 133-Ent2] was tested. Which EC50 did it give?
Answer: < 100 nM

Question: For `Cc1cc(N2CC=C3C(C)(C)C(=O)C(C#N)=CC3(c3ccccc3)C2=O)ncn1` (single isomer, unassigned) [Compound 134-Ent1], which EC50 is on record?
Answer: < 100 nM

Question: With `Cc1cc(N2CC=C3C(C)(C)C(=O)C(C#N)=CC3(c3ccccc3)C2=O)ncn1` (single isomer, unassigned) [Compound 134-Ent2] as the compound, how does the EC50 read?
Answer: < 1000 nM

Question: `Cn1nccc1N1CC=C2C(C)(C)C(=O)C(C#N)=CC2(c2ccccc2)C1=O` (single isomer, unassigned) [Compound 136-Ent2] was tested. Which EC50 did it give?
Answer: < 1000 nM

Question: `Cn1cc(N2CC=C3C(C)(C)C(=O)C(C#N)=CC3(c3ccccc3)C2=O)cn1` (single isomer, unassigned) [Compound 137-Ent2] was tested. Which EC50 did it give?
Answer: < 1000 nM

Question: For `Cn1ccc(N2CC=C3C(C)(C)C(=O)C(C#N)=CC3(c3ccccc3)C2=O)n1` (single isomer, unassigned) [Compound 138-Ent1], which EC50 is on record?
Answer: < 100 nM

Question: `CN1CC=C2C(C)(C)C(=O)C(C#N)=CC2(Cc2ccccc2)C1=O` (single isomer, unassigned) [Compound 150-Ent2] was tested. Which EC50 did it give?
Answer: < 1000 nM

Question: Which EC50 does the source give for `COc1ccc(C23C=C(C#N)C(=O)C(C)(C)C2=CCN(C)C3=O)cc1` (single isomer, unassigned) [Compound 151-Ent2] here?
Answer: < 1000 nM

Question: `CN1CC=C2C(C)(C)C(=O)C(C#N)=CC2(c2cccc(F)c2)C1=O` (single isomer, unassigned) [Compound 152-Ent2] was tested. Which EC50 did it give?
Answer: < 100 nM

Question: Which EC50 does the source give for `CN1CC=C2C(C)(C)C(=O)C(C#N)=CC2(c2ccc(Cl)cc2)C1=O` (single isomer, unassigned) [Compound 153-Ent2] here?
Answer: < 100 nM

Question: With `CN1CC=C2C(C)(C)C(=O)C(C#N)=CC2(c2ccc(F)cc2)C1=O` (single isomer, unassigned) [Compound 154-Ent2] as the compound, how does the EC50 read?
Answer: < 1000 nM

Question: `CC(=O)N1CC[C@@H]2C(C)(C)C(=O)C(C(N)=O)=C[C@@]2(C)C1` (single isomer, unassigned) [Compound 155-Ent2] was tested. Which EC50 did it give?
Answer: > 10000 nM

Question: Which EC50 does the source give for `CCN1CCC23CC2(C)C(=O)C(C#N)=CC3(c2ccccc2)C1=O` (single isomer, unassigned) [Compound 161-Ent2] here?
Answer: < 10000 nM

Question: For `CC12C=C(C#N)C(=O)C(C)(C)C1CC(=O)NC2` (single isomer, unassigned) [Compound 163-Ent1], which EC50 is on record?
Answer: < 10000 nM

Question: For `CN1CC2(C)C=C(C#N)C(=O)C(C)(C)C2CC1=O` (single isomer, unassigned) [Compound 164-Ent1], which EC50 is on record?
Answer: < 1000 nM

Question: Which EC50 does the source give for `CN1CC2(C)C=C(C#N)C(=O)C(C)(C)C2CC1=O` (single isomer, unassigned) [Compound 164-Ent2] here?
Answer: < 10000 nM

Question: With `CC(=O)N1CC2(C)C=C(C#N)C(=O)C(C)(C)C2CC1C` (single isomer, unassigned) [Compound 165-Ent2] as the compound, how does the EC50 read?
Answer: < 10000 nM

Question: With `Cc1cc(N2CC[C@@H]3C(C)(C)C(=O)C(C#N)=C[C@@]3(C)C2)ncn1` (single isomer, unassigned) [Compound 168-Ent1] as the compound, how does the EC50 read?
Answer: < 1000 nM

Question: `CC12C=C(C#N)C(=O)C(C)(C)C1CCNC2` (centres unmarked) [Compound 12-Jent2] was tested. Which EC50 did it give?
Answer: < 10000 nM

Question: `CC1(C)C(=O)C(C#N)=C[C@@]2(C)CN(CCS(C)(=O)=O)CC[C@H]12` [Compound 54] was tested. Which EC50 did it give?
Answer: < 10000 nM

Question: With `COCCN1CC[C@@H]2C(C)(C)C(=O)C(C#N)=C[C@@]2(C)C1` [Compound 55] as the compound, how does the EC50 read?
Answer: < 10000 nM

Question: For `CC1(C)C(=O)C(C#N)=C[C@@]2(C)CN(c3cnccn3)CC[C@H]12` [Compound 59], which EC50 is on record?
Answer: < 1000 nM

Question: How did the EC50 turn out when `CC(C)(C)OC(=O)N1CCC2C(C)(C=C(C#N)C(=O)C2(C)C)C1` (centres unmarked) [Compound 62] was run?
Answer: < 1000 nM

Question: `CC1(C)C(=O)C(C#N)=C[C@@]2(C)CN(C(=O)C(F)(F)F)CC[C@H]12` [Compound 79] was tested. Which EC50 did it give?
Answer: < 100 nM

Question: Which EC50 does the source give for `Cc1ncc(N2CC[C@@H]3C(C)(C)C(=O)C(C#N)=C[C@@]3(C)C2)cn1` [Compound 80] here?
Answer: < 1000 nM

Question: Which EC50 does the source give for `CC(=O)N1CC[C@@H]2C(C)(C)C(=O)C(S(C)(=O)=O)=C[C@@]2(C)C1` [Compound 149] here?
Answer: < 1000 nM

Question: Which EC50 does the source give for `CC1(C)C(=O)C(C#N)=C[C@]2(C)NC(=O)CCC[C@@H]12` [Compound 166] here?
Answer: < 1000 nM

Question: How did the EC50 turn out when `CN1C(=O)CCC[C@H]2C(C)(C)C(=O)C(C#N)=C[C@@]21C` [Compound 167] was run?
Answer: < 1000 nM
